# Results from the supplement of paper PMC9135407.
# Where “and” joins values, the source holds several entries; their conditions need not be identical. Identical values can stand only once. Counter-ions that a name gives are not always drawn. ± gives the standard deviation of the averaged measurements. The list shows a part of the results. Baselines shift from plate to plate; read single values as rough.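 Assay uses culture-activated primary human stellate myofibroblasts; lipid droplet recovery indicates inactivation. Measured: proportion of Hoechst-counted cells over a plate-specific Bodipy cutoff, duplicate wells, DMSO and nortriptyline as per-plate negative and positive controls. A hit scores, control-normalized, above the plate's top-tenth-percentile nortriptyline wells or ranks among its three best wells. Final well concentrations not reported.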
# Tested on: primary human hepatic stellate cells (donor 1)
# Assay: percent Bodipy-positive cells; higher = more lipid droplet accumulation
# Conditions: 48 h
# [1] = library stock concentration: 3.33 mM
# [2] = library stock concentration: 5.9 mM
# [3] = library stock concentration: 1 mM
# [4] = library stock concentration: 10 mM
# [5] = library stock concentration: 7.1 mM
# [6] = library stock concentration: 6.4 mM
compound,measurement,setting,value
CN1C(C(=O)Nc2ccccn2)=C(O)c2sccc2S1(=O)=O [Tenoxicam],percent Bodipy-positive cells,,31.8 ± 8.9%
same,percent Bodipy-positive cells,[1],14.1 ± 9.2%
same,percent Bodipy-positive cells,[2],6.41% and 15.1%
"O=P(O)(O)O[C@H]1[C@@H](O)[C@H](O)[C@@H](OP(=O)(O)O)[C@H](OP(=O)(O)O)[C@H]1O [D-myo-Inositol-2,4,5-triphosphate (sodium salt)]",percent Bodipy-positive cells,[3],13.7 ± 4.2%
O=C(CCCC[C@@H]1SC[C@@H]2NC(=O)N[C@@H]21)NCCCC[C@H](NC(=O)CCN1C(=O)C=CC1=O)C(=O)O [3-(N-Maleimidopropionyl)-biocytin],percent Bodipy-positive cells,[3],10.7 ± 2.1%
Cc1ncc([N+](=O)[O-])n1CC(O)CCl (configuration not stated),percent Bodipy-positive cells,[4],8.02 ± 2%
Cc1ncc([N+](=O)[O-])n1CC(O)CCl (configuration not stated) [Ornidazole],percent Bodipy-positive cells,,25.1 ± 0.42%
same,percent Bodipy-positive cells,[1],10.7 ± 0.65%
same,percent Bodipy-positive cells,library stock concentration: 9.1 mM,13.5 ± 3.9%
same,percent Bodipy-positive cells,[4],21.9 ± 4.3%
CC(=O)Oc1ccc2c(c1)CC[C@@H]1[C@@H]2CC[C@]2(C)[C@@H](OC(C)=O)CC[C@@H]12 [Estradiol diacetate],percent Bodipy-positive cells,[4],27 ± 12%
NC(=O)N1c2ccccc2CC(O)c2ccccc21 (configuration not stated) [Licarbazepine],percent Bodipy-positive cells,[4],6.37 ± 1.2%
Cc1cccc(C)c1NC(=O)C1CCCCN1C (configuration not stated) [Mepivacaine hydrochloride],percent Bodipy-positive cells,[5],30.1 ± 3.6%
same,percent Bodipy-positive cells,[4],49.5 ± 7%
Cc1cccc(C)c1NC(=O)C1CCCCN1C (configuration not stated) [Mepivacaine HCl],percent Bodipy-positive cells,[1],12.4 ± 0.39%
same,percent Bodipy-positive cells,[4],23.7 ± 0.72%
Cc1cccc(C)c1NC(=O)C1CCCCN1C (configuration not stated),percent Bodipy-positive cells,[4],10.1 ± 4.5%
CCc1nc(-c2cccc(C)c2)c(-c2ccnc(NC(=O)c3ccccc3)c2)s1,percent Bodipy-positive cells,library stock concentration: 80 uM,20.7 ± 2.5%
same,percent Bodipy-positive cells,library stock concentration: 400 uM,10.1% and 16.8%
same,percent Bodipy-positive cells,library stock concentration: 2 mM,9.25% and 27.5%
same,percent Bodipy-positive cells,[1],9.91 ± 5%
COc1ccc(C2C(=O)c3ccccc3C2=O)cc1 [Anisindione],percent Bodipy-positive cells,library stock concentration: 7.9 mM,18.8 ± 3%
same,percent Bodipy-positive cells,[4],29.2 ± 4%
CN(C)c1ccc2nc3ccc(=[N+](C)C)cc-3sc2c1 [Methylene blue],percent Bodipy-positive cells,[2],63.6 ± 12%
COc1cc(/C=C/C(=O)N2CCC=CC2=O)cc(OC)c1OC [Piperlongumine],percent Bodipy-positive cells,,100%
O=C(Nc1ccccc1)c1ccccc1O [Salicylanilide],percent Bodipy-positive cells,[1],13.8 ± 6%
same,percent Bodipy-positive cells,library stock concentration: 9.4 mM,5.11 ± 0.45%
same,percent Bodipy-positive cells,[4],53.6 ± 16%
CCCOc1ccc(/C=C2/SC(=O)NC2=O)cc1 [PIM1/2 Kinase Inhibitor VI],percent Bodipy-positive cells,[1],9.3 ± 1%
C#C[C@]1(O)CC[C@H]2[C@@H]3CCc4cc(OC5CCCC5)ccc4[C@H]3CC[C@@]21C,percent Bodipy-positive cells,[4],77.243 ± 0.064%
CN(C)CCC=C1c2ccccc2CCc2ccccc21 [Amitriptyline HCl],percent Bodipy-positive cells,[1],38.1 ± 2%
CN(C)CCC=C1c2ccccc2CCc2ccccc21 [Amitriptyline hydrochloride],percent Bodipy-positive cells,[6],28.4 ± 3.6%
same,percent Bodipy-positive cells,[4],60.5 ± 7%
CN(C)CCC=C1c2ccccc2CCc2ccccc21 [Annoyltin],percent Bodipy-positive cells,[4],93.67 ± 0.81%
CN(C)CCC=C1c2ccccc2CCc2ccccc21 [Amitryptiline hydrochloride],percent Bodipy-positive cells,,74 ± 5.1%
Cc1ccnc2c1NC(=O)c1cccnc1N2C1CC1 [Nevirapine],percent Bodipy-positive cells,[1],17.3 ± 1.3%
same,percent Bodipy-positive cells,[4],12.3 ± 1.4%
Cc1ccnc2c1NC(=O)c1cccnc1N2C1CC1 [Viramune],percent Bodipy-positive cells,[4],5.5 ± 2.1%
Cc1ccnc2c1NC(=O)c1cccnc1N2C1CC1,percent Bodipy-positive cells,[4],45.52 ± 0.35%
CCCCC[C@H](O)/C=C/C=C\C/C=C\C/C=C\CCCC(=O)O,percent Bodipy-positive cells,library stock concentration: 100 uM,6.88 ± 5.6%
CCCCCC=CC=CC(O)CCCCCCCC(=O)OCC(COC(=O)CCCCCCCC=CC=CC(O)CCCCC)OC(=O)CCCCCCCC=CC=CC(O)CCCCC (configuration not stated) [Hydroxy Linoleins],percent Bodipy-positive cells,[3],13.3 ± 0.52%
CCNC(=O)C1=C(c2ccc(OC)cc2)C(=C2C=C(Cl)C(O)=CC2=O)NN1,percent Bodipy-positive cells,[4],92.7 ± 2.4%
CC(C)[C@H](CO)Nc1nc(Nc2cccc(Cl)c2)c2ncn(C(C)C)c2n1 [Purvalanol A],percent Bodipy-positive cells,[1],12.1 ± 1.4%
same,percent Bodipy-positive cells,[4],25.9 ± 3.6%
Cc1[nH]c(=O)c(C#N)cc1-c1ccncc1 [Milrinone],percent Bodipy-positive cells,,5.17 ± 1.1%
same,percent Bodipy-positive cells,[1],5.22 ± 1%
same,percent Bodipy-positive cells,library stock concentration: 9.5 mM,9.53 ± 0.57%
same,percent Bodipy-positive cells,[4],11.2% and 20.7%
same,percent Bodipy-positive cells,library stock concentration: 23.7 mM,12.5 ± 0.77%
Cn1c(=O)c2[nH]cnc2n(C)c1=O [Aminophylline],percent Bodipy-positive cells,,7.5 ± 3%
same,percent Bodipy-positive cells,[1],8.23 ± 3%
same,percent Bodipy-positive cells,[4],8.42 ± 0.21%
Cn1c(=O)c2[nH]cnc2n(C)c1=O [Oxtriphylline],percent Bodipy-positive cells,[5],10.9 ± 7.3%
Cn1c(=O)c2[nH]cnc2n(C)c1=O [Aminophylline ethylenediamine],percent Bodipy-positive cells,[4],51 ± 15%
CS(=O)(=O)c1ccc(C2=C(c3ccccc3)C(=O)OC2)cc1,percent Bodipy-positive cells,[4],9.1 ± 2.6%
CS(=O)(=O)c1ccc(C2=C(c3ccccc3)C(=O)OC2)cc1 [Rofecoxib],percent Bodipy-positive cells,[1],8.64 ± 3.8%
same,percent Bodipy-positive cells,[6],9.15% and 14.7%
